We go through five molecules from article PMC3873232.

Chains of the proteins cited; added tags and fusions are not shown. Lines headed by an entry give the natural chain unless they say otherwise; changes in a name come on top.
UniProt Q9P6R2: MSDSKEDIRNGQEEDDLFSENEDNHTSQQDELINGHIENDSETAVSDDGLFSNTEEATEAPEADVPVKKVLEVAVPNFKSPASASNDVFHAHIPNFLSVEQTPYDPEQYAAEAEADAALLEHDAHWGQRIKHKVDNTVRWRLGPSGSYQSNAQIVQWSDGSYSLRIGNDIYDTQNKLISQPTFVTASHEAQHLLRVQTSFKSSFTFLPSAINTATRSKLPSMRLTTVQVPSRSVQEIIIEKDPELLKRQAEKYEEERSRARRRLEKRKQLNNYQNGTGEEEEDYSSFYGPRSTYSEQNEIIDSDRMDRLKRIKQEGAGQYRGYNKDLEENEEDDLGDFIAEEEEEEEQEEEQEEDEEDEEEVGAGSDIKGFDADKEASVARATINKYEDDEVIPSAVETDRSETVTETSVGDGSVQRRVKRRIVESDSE

No constants are given. Whether binding was seen depends on the method and setting. Binding seen in cells or lysates may run through a third protein. These calls come from enrichment with a bait or labelling near it, and not all partners need be listed. For some of these results: A no says only that the protein was not detected with the bait.

Assay [1] deals with T1, Tpr1-TAP (S. pombe) (UniProt O42668).
T1 sequence: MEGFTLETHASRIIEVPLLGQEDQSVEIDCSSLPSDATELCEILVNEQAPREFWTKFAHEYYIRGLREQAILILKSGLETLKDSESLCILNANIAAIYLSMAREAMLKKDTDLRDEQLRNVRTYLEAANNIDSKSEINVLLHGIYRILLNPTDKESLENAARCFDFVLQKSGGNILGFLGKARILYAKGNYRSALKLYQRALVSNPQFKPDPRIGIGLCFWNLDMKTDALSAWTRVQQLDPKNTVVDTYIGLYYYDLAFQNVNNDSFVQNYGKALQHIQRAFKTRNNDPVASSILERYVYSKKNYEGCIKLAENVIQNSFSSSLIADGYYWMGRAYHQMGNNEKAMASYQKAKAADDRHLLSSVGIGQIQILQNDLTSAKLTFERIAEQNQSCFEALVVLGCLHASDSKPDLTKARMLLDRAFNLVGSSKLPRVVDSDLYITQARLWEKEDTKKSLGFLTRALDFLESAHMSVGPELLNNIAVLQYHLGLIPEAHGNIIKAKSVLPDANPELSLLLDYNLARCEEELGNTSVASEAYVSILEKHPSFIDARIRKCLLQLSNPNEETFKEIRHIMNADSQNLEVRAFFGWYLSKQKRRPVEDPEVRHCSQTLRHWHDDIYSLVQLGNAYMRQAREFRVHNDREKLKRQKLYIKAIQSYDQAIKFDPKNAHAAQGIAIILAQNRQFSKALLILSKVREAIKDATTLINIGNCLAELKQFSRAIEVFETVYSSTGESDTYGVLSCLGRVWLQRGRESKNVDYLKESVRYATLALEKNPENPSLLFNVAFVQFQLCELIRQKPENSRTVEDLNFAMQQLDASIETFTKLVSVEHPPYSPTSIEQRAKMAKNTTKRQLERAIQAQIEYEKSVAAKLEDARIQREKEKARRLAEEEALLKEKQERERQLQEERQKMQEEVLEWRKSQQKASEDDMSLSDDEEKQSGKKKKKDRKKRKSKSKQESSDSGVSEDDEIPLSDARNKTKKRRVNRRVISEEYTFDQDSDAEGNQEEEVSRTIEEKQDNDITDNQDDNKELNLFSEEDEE
The assay is described as follows: affinity purification with mass spectrometry; tandem affinity purification (TAP) from S. pombe whole cell extracts; SDS-PAGE with Coomassie or silver staining; bands absent from the untagged control excised and identified by tandem mass spectrometry.

In assay [2] the target is T1, Tpr1-TAP (S. pombe). Description: affinity purification with mass spectrometry; TAP from S. pombe whole cell extracts, modified (no glycerol or detergent in final wash and elution, EDTA in the elution buffer); eluate analysed in solution by mass spectrometry; untagged strain as control.
The target of assay [3] is Paf1-TAP (S. pombe). The assay is described as follows: affinity purification with mass spectrometry; tandem affinity purification (TAP) from S. pombe whole cell extracts; SDS-PAGE with Coomassie or silver staining; bands absent from the untagged control excised and identified by tandem mass spectrometry.
Assay [4] deals with Prf1-TAP (S. pombe). Described as above.
Assay [5] has as its target Prf1-TAP (S. pombe). Description: affinity purification with mass spectrometry; TAP from S. pombe whole cell extracts, modified (no glycerol or detergent in final wash and elution, EDTA in the elution buffer); eluate analysed in solution by mass spectrometry; untagged strain as control.

Prf1 (S. pombe): the binding result in assay [1] and in assay [2] was “no binding” each time.
Regarding Leo1 (from UniProt Q9P6R2), the binding entry in assay [1] and in assay [2] was “binds” in each case.
In the case of Paf1 (S. pombe), the binding result in assay [1] and in assay [2] was “binds” in each case.

B1: Tpr1 (protein, UniProt O42668 1-1039)
chain: T1 sequence
Regarding B1, the binding result is recorded as “binds” in assay [3], “no binding” in assay [4] and “no binding” in assay [5].

B2: Cdc73 (protein, UniProt Q9UUE7 1-371)
chain: MDSLLLLKKSIAEKKDVKLLASSEATSKVEKIEDAQYILFDENTSPILIDEPTKFIKLENDSHFSLRSVYFAWLLRDTSIAEYIQQCSELGIQNLTFLERTDLISWLEGSSDSEHIIGLEKPKPEGSTDAATSMDVDLHKKSEEVNWLFENTRTVSNHNSVLHGIKPIDFISLRKDVLDYIHANKATASAHADEQERPAKKRNRDPIILLSPSASSLLTMHNIKKFLEEGIFVPPAEAAHAAGGGRGPELIALSHKSSNSKFGTMRFIIVEGTEKFKPDYWDRVVCVFTTGQAWQFRDYKWSEPHQLFHHVKGFLVQYVGDPPHPATHDWNVEGIFVERLRRHTDREVVSQLWDKLERWMENRWPLWNGRR
B2: the binding entry in assay [4] is reported as “no binding”; in assay [1], “binds”; in assay [5] it was “no binding”; in assay [2], “binds”.
